About 7,500 (2.1%) of roughly 360,000 compounds were called active. The shares of active, inactive and inconclusive entries below differ from those in the screen. The call rests on the fitted dose curve; in most records, active means well fitted inhibition curve with a large enough effect; inconclusive means small, poorly fitted or top-dose-only effect, or effect the other way; inactive means flat fitted curve, though single readings scatter. Potencies beside an inconclusive call are fits to weak or partial responses and may not hold up.
assay: Nrf2 qHTS screen for inhibitors; conditions: A549 ARE-Fluc reporter, luciferase luminescence, 18-24 h; activity change, negative = inhibition: at 46 µM (top of the series); further: nearly all actives have a fitted effect of over 60% in size
Procedure, shortened: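 A549 ARE_Fluc cells (5000/well, 5% FBS OPTI-MEM) pre-incubated 2 h, then treated with compounds 18-24 h at 37C/5% CO2 in concentration-response. CellTiter-Fluor viability read first; BugLite luciferase luminescence after 15 min at room temperature gives Nrf2 activity.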
On the % scale 0 is the no-effect control and ±100 the full control effect; potency means the concentration at half of the fitted maximal effect.

Structure (SMILES) | Potency | activity change, negative = inhibition
COc1cc(CN2CCN(c3cccc(C)c3C)CC2)cc([N+](=O)[O-])c1O | inconclusive: 20.6 µM [falling, single point] | –
CCCCCOC(=O)c1ccc(OC(=O)c2cncc(Br)c2)cc1 | inconclusive: 23.1 µM [activator, single point] | –
O=C(NCCc1c[nH]c2ccccc12)C(=O)NCC(c1cccnc1)N1CCN(c2ccccc2)CC1 (configuration not stated) | inconclusive: 18.4 µM [falling, single point] | –
COc1ccc(C2Nc3ccccc3C(=O)N2c2ccc(F)cc2)cc1CSc1ccccn1 (configuration not stated) | – | inactive: 2.81%
C/C(=N\NC(=O)c1ccc2c(c1)OCO2)c1ccco1 | inconclusive: 0.517 µM [activator, full curve] | –
COc1cccc(N2CCN(C(=O)CCCCCn3c(=S)[nH]c4cc5c(cc4c3=O)OCO5)CC2)c1 | inconclusive: 16.4 µM [falling, single point] | –
COC(=O)c1ccc(NC(=S)NC2CCc3ccccc32)cc1 (configuration not stated) | inconclusive: 13 µM [falling, partial curve] | –
COc1ccc(/C=N/NC(=O)c2ccncc2)cc1CN1CCN(c2ccc(F)cc2)CC1 | – | inactive: -4.7%
CCOC(=O)C1=C(Cn2cnc3ccccc32)NC(=O)NC1c1cc(C)ccc1C (configuration not stated) | inconclusive: 16.4 µM [falling, partial curve, poor fit] | –
N#CC(C#N)=C1C=CC=CN1/C(=C\c1ccccc1Cl)C(=O)c1ccccc1 | inconclusive: 25.9 µM [falling, single point] | –
COc1ccc(C)cc1NC(=O)c1cccc(C(=O)Nc2cc(C)ccc2OC)c1 | inconclusive: 14.6 µM [falling, partial curve] | –
COc1cc(/C=N/N(C)c2ccccc2)ccc1O | inconclusive: 23.1 µM [activator, partial curve] | –
Cc1ccc(S(=O)(=O)c2nc(NN(C)C)sc2Cl)cc1 | active: 23.1 µM | –
CCC(CC)c1nnc(NC(=O)c2cccc(S(=O)(=O)N3CCOCC3)c2)s1 | inconclusive: 18.4 µM [falling, partial curve] | –
Cc1ccc(C(=O)Oc2ccc(/C=C3\C(=N)N4N=C(N5CCOCC5)SC4=NC3=O)cc2)cc1 | active: 7.31 µM | –
CS(=O)(=O)N(CC(=O)Nc1cccc(Br)c1)Cc1ccccc1 | inconclusive: 29.1 µM [falling, partial curve, poor fit] | –
Clc1ccc(-c2noc(CN3CCN(c4ccccc4)CC3)n2)cc1 | inconclusive: 16.4 µM [falling, partial curve, poor fit] | –
COc1ccccc1C(=O)N/C(=C\c1cn(S(=O)(=O)N(C)C)c2ccccc12)C(=O)NCCN1CCOCC1 | inconclusive: 0.0146 µM [falling, full curve] | –
O=C(Nc1cc(S(=O)(=O)N2CCOCC2)ccc1OCC(F)(F)F)C1=COCCO1 | inconclusive: 29.1 µM [falling, single point] | –
Cc1cc(C)c(OCC(=O)Nc2ccccc2N2CCCCC2)c(C)c1 | – | inactive: 9.96%
O=C(NCc1nnc(C(=O)Nc2ccc(C(F)(F)F)cc2Cl)o1)c1ccccc1 | – | inactive: 13.5%
Cc1cc([N+](=O)[O-])ccc1NC(=O)CN1C2CCC1CC(NC(=O)NC13CC4CC(CC(C4)C1)C3)C2 (configuration not stated) | active: 16.4 µM | –
CCC(Oc1ccc(Br)cc1)C(=O)N1CCN(c2ncccn2)CC1 (configuration not stated) | inconclusive: 32.6 µM [falling, single point] | –

Pulled one by one from the entries so far (4):
Structure (SMILES) | Potency | activity change, negative = inhibition
CCC(Oc1ccc(Br)cc1)C(=O)N1CCN(c2ncccn2)CC1 (configuration not stated) | inconclusive: 32.6 µM [falling, single point] | –
COc1cc(CN2CCN(c3cccc(C)c3C)CC2)cc([N+](=O)[O-])c1O | inconclusive: 20.6 µM [falling, single point] | –
C/C(=N\NC(=O)c1ccc2c(c1)OCO2)c1ccco1 | inconclusive: 0.517 µM [activator, full curve] | –
CCCCCOC(=O)c1ccc(OC(=O)c2cncc(Br)c2)cc1 | inconclusive: 23.1 µM [activator, single point] | –

Next part.

Structure (SMILES) | Potency | activity change, negative = inhibition
COC(=O)c1ccc(/C=C/C(=O)OCC(=O)NCc2cccs2)cc1 | inconclusive: 5.8 µM [activator, full curve] | –
CCCCc1ccc(NC(=O)c2ccc(N(C)S(C)(=O)=O)cc2)cc1 | inconclusive: 29.1 µM [falling, single point] | –
Cc1ccccc1/C=C/c1cc[n+](C)cc1 | active: 1.3 µM | –
Cc1ccc(CS(=O)(=O)c2ncc(Cl)c(C(=O)Nc3nc4ccc(C)cc4s3)n2)cc1 | inconclusive: 25.9 µM [falling, single point] | –
O=C(NCc1ccco1)c1ccccc1NS(=O)(=O)c1ccc(Cl)s1 | inconclusive: 16.4 µM [falling, single point] | –
COc1ccc(CN(C)C(=O)c2ccc(OCC(=O)Nc3cccc(C(F)(F)F)c3)c(OC)c2)c(OC)c1 | active: 16.4 µM | –
Cc1n[nH]c(C)c1S(=O)(=O)N(CC(=O)Nc1ccc(C(F)(F)F)cc1)c1ccc(C(C)C)cc1 | inconclusive: 16.4 µM [falling, single point] | –
CCOC(=O)c1sc2ncnc(NCC(c3cccs3)N(C)C)c2c1C (configuration not stated) | inconclusive: 25.9 µM [activator, partial curve, poor fit] | –
CCCCC(=O)NC(c1ccccc1Cl)c1c(O)ccc2ccccc12 (configuration not stated) | inconclusive: 29.1 µM [falling, single point] | –
COCCCNc1oc(-c2cccs2)nc1S(=O)(=O)c1ccc(C)cc1 | – | inactive: -4.21%
CCN(CC(=O)Nc1cccc(C#N)c1)CC(=O)Nc1cccc(OC)c1 | inconclusive: 10.3 µM [falling, partial curve, poor fit] | –
COc1cc(C(=O)Nc2nc3ccc(S(C)(=O)=O)cc3s2)cc(OC)c1C | inconclusive: 4.61 µM [falling, partial curve, poor fit] | –
CCn1c(/C=C/c2ccccc2)nc2ccccc2c1=O | – | inactive: -12.6%
COc1ccccc1OCCSc1nc2ccccc2n1CC(=O)N1CCOCC1 | – | inactive: 15.5%
Cc1cc(/C=C2/SC(=O)NC2=O)c(C)n1-c1ccc(N2CCOCC2)cc1 | inconclusive: 11.6 µM [falling, partial curve, poor fit] | –
CCCCCc1ccc(OCCOCCn2c[n+](C)c3ccccc32)c(CCCCC)c1 | active: 7.31 µM | –
O=C(CC(=O)c1cc(Cl)ccc1O)c1ccccc1 | inconclusive: 32.6 µM [falling, single point] | –
Cc1ccc(/C=C/C(=O)CCC(=O)O)cc1 | inconclusive: 14.6 µM [activator, partial curve] | –
O=S(=O)(c1cccs1)N1CN(Cc2ccc(F)cc2)c2nc3ccccc3nc21 | inconclusive: 14.6 µM [falling, partial curve, poor fit] | –
COc1ccc(OC)c(/C=C/C(=O)OCC(=O)N2CCCCC2)c1 | – | inactive: 2.34%
CC1(C)CC2CC(C)(CN2C(=O)COc2cccc3ccccc23)C1 (configuration not stated) | inconclusive: 23.1 µM [falling, single point] | –
O=C(Nc1nc2ccc(F)cc2s1)Oc1ccccc1 | inconclusive: 29.1 µM [activator, single point] | –
Cc1csc(NS(=O)(=O)c2cccc([N+](=O)[O-])c2)n1 | inconclusive: 8.2 µM [falling, partial curve, poor fit] | –

Structure (SMILES) | Potency | activity change, negative = inhibition
Cc1nnc(NC(=O)c2ccc3c(c2)OCO3)s1 | inconclusive: 1.84 µM [activator, full curve] | –
O=C(NC(NC(=S)Nc1c(Cl)cc(Cl)cc1Cl)C(Cl)(Cl)Cl)OCc1ccccc1 (configuration not stated) | active: 2.91 µM | –
CCOc1cc(C(=S)N2CCCC2)ccc1OCc1ccccc1 | inconclusive: 25.9 µM [falling, single point] | –
O=C(NCCn1cc(SCc2ccc(Cl)cc2)c2ccccc21)c1cccs1 | inconclusive: 29.1 µM [falling, single point] | –
CCOc1ccc2c(c1)OC(c1ccc(OC)cc1)(C(F)(F)F)NC2=O (configuration not stated) | inconclusive: 14.6 µM [activator, partial curve] | –
COc1cccc(-c2nc(SCC(=O)Nc3ccc4c(c3)OCCO4)c(-c3ccccc3)[nH]2)c1 | inconclusive: 29.1 µM [falling, single point] | –
O=C(N1CCCCCC1)n1c(Cc2ccccc2)nc2ccccc21 | inconclusive: 8.2 µM [falling, partial curve, poor fit] | –
COc1ccc2c(c1)c(C(=O)O)c(C)n2-c1ccc(Cl)cc1 | inconclusive: 23.1 µM [falling, partial curve, poor fit] | –
Cc1cc(C)cc(NC(=O)CSc2nnc(-c3ccccc3)n2N)c1 | inconclusive: 29.1 µM [falling, single point] | –
Cc1cccc(NC(=O)Cn2c(=O)n(CCCS(=O)(=O)C3CCCCC3)c(=O)c3ccccc32)c1 | – | inactive: 13.2%
CCOCCCNC(=O)c1[nH]c2cc(C)ccc2c1Sc1ccc(Cl)cc1 | – | inactive: 3.75%
CCOC(=O)c1ccc(-n2c(C)nc3c(cnn3-c3ccc(Cl)cc3)c2=O)cc1 | inconclusive: 29.1 µM [activator, single point] | –
COc1ccc(/C=C/c2cc(-c3ccc(C)cc3)o[n+]2C)cc1 | active: 8.2 µM | –
Cc1ccc(-c2noc(/C=C/c3ccccc3)n2)cc1 | inconclusive: 7.31 µM [activator, partial curve] | –
N#Cc1nc(-c2ccc(OCc3ccccc3)cc2)oc1N1CCC(C(N)=O)CC1 | inconclusive: 29.1 µM [falling, single point] | –
Cc1[nH]c2ccc(C(=O)OC(C)C(=O)N(C)c3ccccc3)cc2c1C (configuration not stated) | inconclusive: 16.4 µM [falling, single point] | –
COc1ccc(C(=O)N2c3ccccc3C(C)(c3ccc(Cl)cc3)CC2(C)C)cc1 (configuration not stated) | inconclusive: 29.1 µM [falling, single point] | –
Cc1ccc(-c2onc(C)c2C)cc1S(=O)(=O)N1c2ccccc2CC1C (configuration not stated) | active: 8.2 µM | –
C/C=C/C(=O)N1c2ccc(C)cc2C(C)=CC1(C)C | inconclusive: 0.13 µM [falling, full curve, poor fit] | –
CCOP(=O)(OCC)/C(C#N)=C/c1cc(OC)ccc1OC | – | inactive: -16.5%
CC1(C)N=C(SCc2ccccc2Cl)c2ccccc2N1 | inconclusive: 20.6 µM [activator, partial curve, poor fit] | –
